Among all 53,000 sequences or so, about 3,700 (7%) were called active.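 How the source made its calls: active means gene knockdowns whose robust z-score for IL-1 alpha signal is at least 2 or at most -2, so actives lie on both sides; inactive means the rest.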 This is one part of the list.

This assay in a line: Components of the Cytosolic LPS Sensing Pathway: Gene Identification via Genome-wide siRNA Screen.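 Further: robust z of the log signal after scaling to non-targeting control siRNA wells of the plate.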 As to conditions: RAW264.7 macrophages, IL-1a HTRF, actives lie on both sides, screened at 100 nM (by protocol), cells primed 5 h with Pam3CSK4 first. A digest of the protocol:
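RAW264.7; siRNA 100 nM final, RNAiMAX, 48h 37 degrees C; Pam3CSK4 5 h; LipidA + TransIT-TKO 24 h; IL-1a HTRF; CellTiter-Glo viability; robust z vs negative-control median.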
For orientation: In TR-FRET formats the signal depends on donor and acceptor labels being close together.
On to GGACCCUGAACUACAACCUTT against Olfr860, for which the z-score was inactive: 0.473.

Take GCCAGAUAUCUCACAGACATT against Ppil2: the z-score was inactive: -1.13. As for GGGCAUUCAUGAAGGUAUUTT against Olfr165, the figure is inactive: -1.13; as for GUCACAGAAAGCUUAGUCCTT against Olfr427, active: -2.93.

For the sequence GGAGUCUCCCAAAUGAAGATT against Son, the z-score was active: -2.84.

For GGUGAAAAGCAAUCCUCAGTT against Prss27, the z-score was inactive: -1.71. As to GAACUGGUCCUACAAUGAATT against Tmem150a, the z-score is inactive: 0.399.

Turning to GCCGGUUUCAGUUAAAGAGTT against Pccb, the z-score was inactive: 0.837. As for CGAGCUCAGGUGAGAAAUUTT against Pfpl, the figure is inactive: 0.924; as for GAAAAUGGUAAUCUAGGCATT against Siah1b, inactive: -0.992. As for GGUAAUGCCACAUUGAUGGTT against Upk2, the figure is inactive: -0.698. As for GGAUAUGAAGCCUUCAUGGTT against Slc5a1, the figure is inactive: -0.645; as for CGCCUAGUUAAGGAAGACATT against Mcam, inactive: -0.76; as for GGGAGAAAUCCAGAGGAGATT against Clec7a, inactive: 0.032. Turning to GCAGUUAUGCCAGCUAUACTT against Hao2, the z-score was inactive: -0.341.

GGAUCUGAAGCUGAUUACATT against Clca2: the z-score was active: 2.47.

On to GGGAUAUCAGUAUUUCUCATT against Vipas39, for which the z-score was inactive: -0.0383.

On to GGUGAACGGUGAGAAUGUGTT against Slc9a3r1, for which the z-score was inactive: -1.43. As for GGAGUUCUACAAUCAAACATT against Slc2a1, the figure is inactive: 1.22; as for CCGGUACCUUGCUAUGAAGTT against Fgf2, inactive: 0.89; as for GGGUCUAAAUGACUUCUCATT against Mapk1ip1, inactive: -1.59. As for GGAGUAUGGGACCAGAAUATT against Tarbp2, the figure is inactive: 1.87; as for GCAAUUUGUAUGACGGUCUTT against Olfr1240, inactive: 1.33; as for GCAGGGAUUUCUCGAAUGATT against Pgm2, inactive: 1.18.

For GGAGUUUGCCAGUGAAUUUTT against Ptpn22, the z-score was inactive: -0.603. As for GCAGAGCUUACCACAGACUTT against Inppl1, the figure is inactive: -0.632. As for GCGUGAACGGAUAAAAAAUTT against Figla, the figure is inactive: 1.09.

Take GGAUGUCUGUCUCAAUUCUTT against Olfr1012: the z-score was inactive: 1.28. As for CGCAUUUUCUCUCGAGCUUTT against Slc25a30, the figure is inactive: -0.34; as for GUUUACCUAGUCUUUGAAUTT against Qrich1, inactive: -0.373. Consider GGACAAAGCUAUUGGGAUUTT against Olfr402, for which the z-score is inactive: 1.45. In the case of GGAAUUUUCUGGAAAUCCATT against Tctn2, the z-score is inactive: -0.111. In the case of GGAUGAUCUCUACAGUAUATT against Cckar, the z-score is inactive: 0.233. GGACAAAAACAAGAUCCUCTT against Hspa2: the z-score is inactive: 1.56. As for GGGACCACGUCACUCUUAATT against Rab6b, the figure is inactive: 1.78; as for CGUAUUGUUCUCAAGCUAUTT against Rtp4, inactive: 0.0893. Take GGGUGAGUCCUAAAAAAAATT against Ntmt1: the z-score was inactive: 0.918. As for CGUAGACUGAUAUAGCAAUTT against Irf5, the figure is inactive: 0.033. As for “GCAGACUCAUGCACUUGAATT against Olfr1165-ps”, the figure is inactive: -0.321; as for GCUAGGUUGGAUAUAUAUGTT against Mypn, inactive: -0.0247; as for “GCGUGAGUCCCAGAAGCUUTT against 2410018L13Rik”, inactive: -1.21. As for GCCUUUGAGGUUAUGAUCATT against Klk7, the z-score was inactive: -1.09. As for CCUACAUUGAUCAUCUUUATT against Olfr901, the figure is inactive: -1.12; as for GCACCUGGUAAGGUCAUUCTT against Olfr545, inactive: -1.18; as for GGAACACCGAACAUAAAUATT against Slc9c1, inactive: 0.583.

As for GGAACUGAUGGAGAAGCUATT against Tpcn2, the z-score was inactive: -0.604.

In the case of CGGAAAGUCCGGUUUCGAATT against Grxcr1, the z-score is inactive: 0.156. As for GGGAACCUACGAGGAUUAUTT against Myl6, the figure is inactive: 0.397. As for CCUUGUGGACUCUUUAAUUTT against Id2, the figure is inactive: 1.1; as for GGAUCAACAUGGUCUCCUCTT against Stambpl1, inactive: -1.63.

Take GGUAGUCUGAACACUCUAATT against Msto1: the z-score was inactive: 0.427. As for GGCCGACCCGUUUUCUUUUTT against Nap1l4, the figure is inactive: 0.594; as for CGUGACUCGUUGUUUCUGGTT against Fyn, inactive: -1.62; as for CGGAAAAUUUGUUCCUGACTT against Rbm12b2, inactive: 1.44.

Take GGGCUAAGCACCUGAGAUCTT against Ugt2b38: the z-score is inactive: 1.33. As for GGACAUGAUCGACGACUACTT against Zfyve28, the figure is inactive: 0.109. On to GCUCUUCUCGCAUUCCUAUTT against Gpc2, for which the z-score was inactive: -0.595. Take GCUAUUUGCUCAAAGCUGUTT against Sptbn2: the z-score was inactive: 0.0521. As for GCACAGGACUGAUGCUAAGTT against Wdr91, the figure is active: 2.92; as for GGCCAUGUUGCAUCAGUUGTT against Kif27, inactive: 0.438. Regarding GGUGUGAGAUCGAAUCAGATT against Arhgef18, the z-score is inactive: 0.503. Regarding GGUGCAUUUAAAAAAGCUGTT against Olfr1448, the z-score is inactive: 0.146.

On to CGCACAAGAGUGGUUCGAATT against Sytl1, for which the z-score is inactive: 0.554. As for “UUCCUUUUCUUCAUGCUUUTT against Olfr104-ps”, the figure is inactive: 0.453; as for GAGAAGAAAAAAUGCAGUGTT against Olfr825, inactive: 0.0375. As for GCUCUAUAGGCGAGCAUAGTT against Rhox11, the figure is inactive: -1.54; as for GGAUUUCCCUAAAAAACACTT against Tbl2, inactive: -0.929.

On to CCAAGUCUCGUGUGAAAGATT against Nefh, for which the z-score was inactive: -0.831. With GGAGAAAAAUCAUCUUAUCTT against Tead1, the z-score was inactive: 0.772. As for GCCAAAAGAAAUUUGGGACTT against Txndc9, the figure is inactive: 1.21; as for GGAACCUAUCCAAGAAGUATT against Ckap2, inactive: 0.428; as for GGCCAAGUCUCCAAUUCUATT against Zfp628, inactive: 0.568. Turning to CCAGUUAUGACAAUUAAGATT against Epha3, the z-score was inactive: -0.558.

For CCUCCUCUAUCAAGACAUUTT against Txnl4b, the z-score is inactive: 0.245. As for CGGCAGUAAUCCCGUUGACTT against Rcor1, the z-score was inactive: 0.701.

Turning to GCAAGUGUUAGAACACAAGTT against Cish, the z-score is inactive: 0.823. As for CCAUACUGUUAUAGUGGUGTT against Olfr25, the figure is inactive: 0.0612. As for GGUCACCAAACAGCACGUGTT against Cage1, the figure is inactive: 1.69.

As for GCAGUCCUCAGUCGAGAAATT against Aqp9, the z-score was inactive: -0.638. As for CGCAAAGAGGUAAAUGAUCTT against Rps6ka6, the figure is inactive: 0.343. Turning to CCUGGAAAGACUCUCGGAGTT against Tpp1, the z-score was inactive: 0.424.

As for GGAAAGUUAUACUUUAGGGTT against Zbtb37, the z-score is inactive: 1.49. As for GGCAAGUCUUUAAAAGUCCTT against Xrcc2, the figure is inactive: -1.48; as for GGGCAAAAUCGUGUCAAGCTT against Dpp9, inactive: 0.253. As for GGAUAAAGGAAUCUGAUCUTT against Unc80, the figure is active: -2.58; as for CCAUUCAUUUUAUCACUUCTT against Il1rn, inactive: 0.372. For the sequence GGACACUGUGUAUUUUGUATT against Col11a2, the z-score is inactive: -0.603. As for GGAUGAAGAUGGUUCGUCGTT against Kdm1b, the figure is inactive: 0.29; as for GGUUUUCUACAGUUAUUGUTT against Ablim2, inactive: 1.46; as for GGUGAACUUCAUCUUCUCUTT against Lrwd1, inactive: -1.29.

GGUUAUCAGAGGUUUAGUUTT against Oser1: the z-score is inactive: 0.23. On to GGUUCUGGACUUCAUCCUCTT against Ocstamp, for which the z-score was inactive: 1.42.

On to GGUACUAAUGGAUUACCCATT against BC031181, for which the z-score is inactive: -0.064. As to GGUCCAAGAAGGAUUACCUTT against Uox, the z-score was inactive: 0.206. As for GGGCCUUGUUCCUCUUGAATT against Zfand6, the figure is inactive: -1.51; as for GCCAAGCUUGUCCAUUGAUTT against Akap9, inactive: -0.443; as for GGCUUACCUGAUGGUUGAUTT against Asb14, inactive: 0.0083.

Regarding GCAUAUGGAUAAGAUUGUUTT against Efr3a, the z-score was inactive: -0.363.

Regarding GGAUCCCACACUUUUCUGATT against Rxra, the z-score was inactive: 1.28. As for GGGACCUGAUCAUAAACUATT against Rnf183, the figure is inactive: 1.11; as for GGAGGGCAUGUACUAUGAGTT against Ctsll3, inactive: -0.404; as for GGAACAAGGUAAAAUACAUTT against Nthl1, active: 3.88. On to GCCAGUGUUCGUGCCUGAUTT against Pomgnt2, for which the z-score was inactive: -1.21. As for CCGACUCCCAUGCAUCUAUTT against Mccc2, the figure is inactive: -0.681. As for GGGAAAAUUUCCUCUGACUTT against Chia1, the figure is active: -2.03; as for GGAAAGAGACAACUACUUATT against Prokr1, inactive: 1.1. As for GGGCAGGAUUCAGGGAACATT against Ntrk3, the figure is inactive: -1.13.

Source of the values: PubChem BioAssay AID1508600 (Functional Genomics Laboratory (NCATS/FGL), 2020).
